Literature values as cited in patent US20240174594A1, “4-ALKENYL AND 4-ALKYNYL PHENETHYLAMINE DERIVATIVES AND RELATED COMPOUNDS WITH MODIFIED DOM-LIKE ACTION” (priority 2022, published 2024).
At least one compound was matched to its structure with a doubt left.

Sequences of proteins named here, by UniProt entry; tags and fusion partners are left off.
UniProt P14416, whole entry: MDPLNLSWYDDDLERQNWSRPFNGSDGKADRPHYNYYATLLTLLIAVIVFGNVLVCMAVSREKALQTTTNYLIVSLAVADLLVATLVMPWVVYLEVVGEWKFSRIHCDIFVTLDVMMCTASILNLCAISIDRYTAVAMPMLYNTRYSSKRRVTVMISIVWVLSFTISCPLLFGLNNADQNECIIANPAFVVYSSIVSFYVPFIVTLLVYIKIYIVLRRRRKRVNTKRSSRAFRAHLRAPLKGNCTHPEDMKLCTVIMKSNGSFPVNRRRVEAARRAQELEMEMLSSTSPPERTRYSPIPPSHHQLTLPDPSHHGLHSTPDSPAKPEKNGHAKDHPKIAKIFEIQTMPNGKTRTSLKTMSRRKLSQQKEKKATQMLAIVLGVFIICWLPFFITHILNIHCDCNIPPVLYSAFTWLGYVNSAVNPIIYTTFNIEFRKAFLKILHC

Biological target: D2 receptors (Homo sapiens, UniProt P14416)
Details: literature and data on file; cited from earlier work

SMILES: CN(C)CCc1c[nH]c2cccc(OP(=O)(O)O)c12 [psilocybin]
- D2 receptor affinity: no affinity
